Earlier results as cited in patent US7576128B2 (priority 2004, dated 2009).
At least one structure is not confirmed: it was looked up by name or label, or the drawing left a doubt.

Experiments:
[1] = topical solution of 3% minoxidil, 19 months, 83 males; cited from earlier work
[2] = Tosti, Dermatologica 1986; cited from earlier work

Nc1cc(N2CCCCC2)nc(N)[n+]1[O-] [minoxidil, Minoxidil]
subjects in whom hair growth occurred [1]: 55%
subjects who considered the growth cosmetically relevant [1]: 20%
subjects with cosmetically acceptable re-growth [2]: 18.1%
